Measured values from publication PMC4267639, “The Mtr4 ratchet helix and arch domain both function to promote RNA unwinding”.
For at least one entry, the source does not settle the construct or the ends of the probe. For some assays here: No signal at the amounts used counts as a negative.

Columns and labels:
[1] = target: Mtr4 R1030A-archless (Saccharomyces cerevisiae) (UniProt P47047); assay: EMSA; conditions: no appreciable binding up to 20 uM protein; recombinant protein
[2] = target: T1, Mtr4 archless (Saccharomyces cerevisiae) (UniProt P47047); assay: EMSA; conditions: almost complete binding at 5 uM protein; recombinant protein
T1 sequence: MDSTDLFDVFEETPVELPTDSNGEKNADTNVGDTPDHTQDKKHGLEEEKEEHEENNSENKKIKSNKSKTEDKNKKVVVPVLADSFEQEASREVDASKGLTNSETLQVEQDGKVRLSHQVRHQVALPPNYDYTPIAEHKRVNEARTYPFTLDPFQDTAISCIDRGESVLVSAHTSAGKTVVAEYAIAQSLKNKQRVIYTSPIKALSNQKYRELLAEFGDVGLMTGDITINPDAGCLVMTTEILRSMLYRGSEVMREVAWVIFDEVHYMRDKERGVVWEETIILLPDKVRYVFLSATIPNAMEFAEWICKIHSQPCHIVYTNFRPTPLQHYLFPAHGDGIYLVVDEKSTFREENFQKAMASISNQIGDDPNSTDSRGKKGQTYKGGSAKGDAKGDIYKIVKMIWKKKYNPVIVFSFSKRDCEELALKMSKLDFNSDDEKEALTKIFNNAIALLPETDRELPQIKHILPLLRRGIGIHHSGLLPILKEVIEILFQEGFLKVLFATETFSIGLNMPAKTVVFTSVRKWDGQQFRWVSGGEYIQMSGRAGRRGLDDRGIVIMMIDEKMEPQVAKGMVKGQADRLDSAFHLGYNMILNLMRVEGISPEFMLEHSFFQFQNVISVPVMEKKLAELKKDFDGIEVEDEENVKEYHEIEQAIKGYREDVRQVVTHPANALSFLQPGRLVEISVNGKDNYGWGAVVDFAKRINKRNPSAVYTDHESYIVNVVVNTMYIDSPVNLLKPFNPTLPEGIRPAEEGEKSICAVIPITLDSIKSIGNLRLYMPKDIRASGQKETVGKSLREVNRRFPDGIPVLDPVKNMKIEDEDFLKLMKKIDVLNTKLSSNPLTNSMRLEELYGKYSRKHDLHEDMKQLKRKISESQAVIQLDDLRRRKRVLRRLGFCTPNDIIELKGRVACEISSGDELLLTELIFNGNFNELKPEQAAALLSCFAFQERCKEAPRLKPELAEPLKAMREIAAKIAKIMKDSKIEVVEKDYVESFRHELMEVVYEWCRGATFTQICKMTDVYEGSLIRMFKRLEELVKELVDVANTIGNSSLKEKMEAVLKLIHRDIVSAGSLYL

Sequence: GCGUCUUUACGGUGCUUAAAAA / AGCACCGUAAAGACGC [poly(A) substrate R22A/R16 (EMSA)]
- binding result [1]: no binding
- binding result [2]: binds
